This test deals with Salmonella enterica serovar Typhimurium SL1344. The test can be described thus: bacterial growth OD600 after 18 h with compound and polymyxin B; higher = more bacterial growth (less inhibition). The following applies: 50 µM, Mueller-Hinton broth.

The list shows a part of the results. These are raw signals, not scaled to a control.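 First-pass screen: polymyxin B was added at a level that permeabilizes the Salmonella outer membrane while sparing the inner membrane. DMSO wells, with and without polymyxin B, defined maximum growth. Because plates differed from one another, each plate's data were ranked separately and the compounds with the lowest OD600 were carried forward as hits.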

As for `CCOC(=O)N1CCC(NC(=O)C2CC(Cc3ccc(OC)cc3)=NO2)CC1` (centres undefined), the “bacterial growth OD600” value (polymyxin B 0.75 µg/mL) was determined as 0.877. On to `O=C(CC(F)(F)F)N1CCC(C2CCN(c3ncccn3)CC2)C1` (centres undefined), for which, under “polymyxin B 0.75 µg/mL”, the “bacterial growth OD600” value is 0.953. `CCC1CN(CC(=O)NC(C)COC)Cc2cc(OC)ccc2O1` (centres undefined): the “bacterial growth OD600” value (polymyxin B 0.75 µg/mL) stood at 0.983.

As for `CCCCn1c(CN(C)Cc2ccc(C)o2)cnc1S(=O)(=O)CC1CCC1`, the “bacterial growth OD600” value (polymyxin B 1 µg/mL) worked out at 0.289. Consider `COc1ccc(CC(=O)NCC2CCCN(Cc3cc(OC)cc(OC)c3)C2)cc1` (centres undefined), for which the “bacterial growth OD600” value (polymyxin B 0.75 µg/mL) is 0.809. On the same count and under the same terms, the figure for `COc1cccc(CN2C(=O)NC(C)(C3CCN(C(=O)/C=C/C(C)C)CC3)C2=O)c1OC` (centres undefined) is 0.946. For the compound `COCCC(=O)N1CCC(Oc2ccc(C(=O)NC3CCOC(C)(C)C3)cc2)CC1` (centres undefined), the “bacterial growth OD600” value (polymyxin B 1 µg/mL) was 1.01. On to `CCCn1c(C)c(CC(=O)NC2CCC2)c2c1CC(C)(C)CC2=O`, for which the “bacterial growth OD600” value (polymyxin B 1 µg/mL) is 0.846. `COc1ccc(NC2CCCN(Cc3ccccc3OC(F)F)C2)cc1OC` (centres undefined): the “bacterial growth OD600” value (polymyxin B 0.75 µg/mL) is 0.759. Turning to `CC(=O)N1CCCN(C(=O)CC(c2ccccc2)c2ccc(Cl)cc2)CC1` (centres undefined), the “bacterial growth OD600” value (polymyxin B 1 µg/mL) stood at 0.805. As to `CN(Cc1ccccc1)C1(CNC(=O)CCC(F)(F)F)Cc2ccccc2C1`, the “bacterial growth OD600” value (polymyxin B 1 µg/mL) is 1.01. With `CC(C)C(=O)N(C)C(Cc1ccccc1)C1CCN(C(=O)/C=C/c2cc(F)ccc2F)CC1` (centres undefined), the “bacterial growth OD600” value (polymyxin B 0.75 µg/mL) was -0.006. For `CCc1ccc(CN(C)C(=O)c2cc(OC)ccc2OC2CCN(C(=O)C3CC3)CC2)cc1`, under “polymyxin B 1 µg/mL”, the “bacterial growth OD600” value was found to be 0.02. For the compound `COCCCN1C(=O)CC(CC(=O)N2CCCCC2c2cccnc2)(c2ccccc2OC)C1=O` (centres undefined), the “bacterial growth OD600” value (polymyxin B 0.75 µg/mL) turned out to be 0.832. As to `O=C(NCC1CC(Cc2ccc(F)cc2)=NO1)/C(F)=C/c1ccccc1` (centres undefined), under “polymyxin B 0.75 µg/mL”, the “bacterial growth OD600” value came to 0.669. With `CCOC(=O)C1(Cc2ccccc2C)CCCN(C(=O)c2cc(C3CC3)n[nH]2)C1` (centres undefined), the “bacterial growth OD600” value (polymyxin B 1 µg/mL) stood at 0.015. For the compound `Cn1ccnc1C1CCCCN1C(=O)CC1(c2cccc(F)c2)CC(=O)N(Cc2cccnc2)C1=O` (centres undefined), for the setting “polymyxin B 0.75 µg/mL”, the “bacterial growth OD600” value worked out at 0.977.

Take `CCCc1cc(C(=O)N2CCC3(CC2)c2ccccc2[C@@H](NC(=O)c2ccncc2)[C@@H]3OC)no1`: the “bacterial growth OD600” value (polymyxin B 0.75 µg/mL) amounted to 0.814. The same measure, in the same setting: to `Cc1ccc(C)c(-c2cn3c(C(=O)NCc4ccncc4)csc3n2)c1` belongs 0.577.

The values above are taken from the supplement of paper PMC12889115.
